# According to the supplement of paper PMC12819154, “High-throughput peptide-centric local stability assay extends protein–ligand identification to membrane proteins, tissues and bacteria” (Nature Structural & Molecular Biology, 2025):
# Sequences of proteins named here, by UniProt entry; tags and fusion partners are left off. A change or cut given only in a name is not applied to a line headed by its entry.
# UniProt P0AD42: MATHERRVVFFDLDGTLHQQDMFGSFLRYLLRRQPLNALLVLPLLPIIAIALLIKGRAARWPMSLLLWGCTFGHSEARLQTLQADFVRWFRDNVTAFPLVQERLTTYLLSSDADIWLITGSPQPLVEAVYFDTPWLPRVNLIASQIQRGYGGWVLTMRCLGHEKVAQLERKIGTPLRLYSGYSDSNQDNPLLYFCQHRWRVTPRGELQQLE
# UniProt P0AF96: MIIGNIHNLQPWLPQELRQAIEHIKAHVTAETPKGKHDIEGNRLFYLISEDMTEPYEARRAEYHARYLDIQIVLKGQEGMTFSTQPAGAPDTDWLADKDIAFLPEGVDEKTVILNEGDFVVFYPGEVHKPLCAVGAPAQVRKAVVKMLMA
# UniProt P0AEK2: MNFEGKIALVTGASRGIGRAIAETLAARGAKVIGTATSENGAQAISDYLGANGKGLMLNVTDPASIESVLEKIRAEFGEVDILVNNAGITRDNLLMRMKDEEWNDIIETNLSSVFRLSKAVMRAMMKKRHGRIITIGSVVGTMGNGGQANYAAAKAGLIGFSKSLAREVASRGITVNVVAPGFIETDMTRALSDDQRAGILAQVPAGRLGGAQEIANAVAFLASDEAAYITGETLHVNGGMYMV
# UniProt P0ADJ3: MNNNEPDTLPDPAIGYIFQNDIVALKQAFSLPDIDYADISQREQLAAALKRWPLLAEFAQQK
# UniProt P0ADM4: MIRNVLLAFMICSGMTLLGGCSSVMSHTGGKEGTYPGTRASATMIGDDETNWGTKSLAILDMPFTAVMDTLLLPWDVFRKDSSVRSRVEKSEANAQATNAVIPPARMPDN
# UniProt P0AFP2: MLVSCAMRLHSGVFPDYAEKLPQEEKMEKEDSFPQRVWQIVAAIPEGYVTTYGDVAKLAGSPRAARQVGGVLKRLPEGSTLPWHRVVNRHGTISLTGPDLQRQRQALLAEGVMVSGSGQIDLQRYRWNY
# UniProt P0AEC3: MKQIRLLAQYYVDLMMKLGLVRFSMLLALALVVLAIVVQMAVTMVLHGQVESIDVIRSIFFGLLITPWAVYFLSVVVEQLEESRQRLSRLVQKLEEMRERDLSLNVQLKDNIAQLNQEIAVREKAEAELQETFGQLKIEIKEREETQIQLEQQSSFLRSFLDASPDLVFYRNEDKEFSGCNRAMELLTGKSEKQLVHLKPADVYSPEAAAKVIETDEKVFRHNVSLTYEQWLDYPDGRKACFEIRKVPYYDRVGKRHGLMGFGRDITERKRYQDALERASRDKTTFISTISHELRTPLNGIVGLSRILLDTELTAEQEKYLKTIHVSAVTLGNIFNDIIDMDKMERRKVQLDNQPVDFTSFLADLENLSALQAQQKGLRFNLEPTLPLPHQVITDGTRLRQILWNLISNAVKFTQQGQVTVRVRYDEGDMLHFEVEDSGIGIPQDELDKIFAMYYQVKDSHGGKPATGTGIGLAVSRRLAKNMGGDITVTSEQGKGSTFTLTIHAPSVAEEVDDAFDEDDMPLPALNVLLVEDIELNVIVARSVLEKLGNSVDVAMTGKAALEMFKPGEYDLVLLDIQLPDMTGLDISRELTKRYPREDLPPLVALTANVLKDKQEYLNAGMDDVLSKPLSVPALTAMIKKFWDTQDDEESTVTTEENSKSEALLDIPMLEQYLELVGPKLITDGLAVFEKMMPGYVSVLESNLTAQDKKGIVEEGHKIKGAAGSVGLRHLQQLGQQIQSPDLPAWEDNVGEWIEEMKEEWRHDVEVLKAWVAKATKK
# UniProt P0AFW8: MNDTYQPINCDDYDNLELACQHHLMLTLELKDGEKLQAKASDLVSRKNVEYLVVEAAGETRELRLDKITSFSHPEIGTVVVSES
# UniProt P0AE58: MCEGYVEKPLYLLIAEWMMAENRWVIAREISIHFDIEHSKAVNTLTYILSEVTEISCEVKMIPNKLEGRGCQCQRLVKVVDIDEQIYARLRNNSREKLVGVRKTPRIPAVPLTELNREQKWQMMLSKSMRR
# UniProt P0AFF4: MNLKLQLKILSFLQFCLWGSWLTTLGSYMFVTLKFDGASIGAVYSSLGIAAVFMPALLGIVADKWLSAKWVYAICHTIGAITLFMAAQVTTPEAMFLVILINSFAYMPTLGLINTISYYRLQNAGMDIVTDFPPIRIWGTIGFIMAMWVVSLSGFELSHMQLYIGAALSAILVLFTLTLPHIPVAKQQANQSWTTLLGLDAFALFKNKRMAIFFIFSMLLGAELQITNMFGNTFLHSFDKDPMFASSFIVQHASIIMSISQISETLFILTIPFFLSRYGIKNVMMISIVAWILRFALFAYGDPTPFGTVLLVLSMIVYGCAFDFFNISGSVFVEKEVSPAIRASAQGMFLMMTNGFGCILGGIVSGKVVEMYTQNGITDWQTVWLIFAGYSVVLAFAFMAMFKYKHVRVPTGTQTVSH
# UniProt P0AG78: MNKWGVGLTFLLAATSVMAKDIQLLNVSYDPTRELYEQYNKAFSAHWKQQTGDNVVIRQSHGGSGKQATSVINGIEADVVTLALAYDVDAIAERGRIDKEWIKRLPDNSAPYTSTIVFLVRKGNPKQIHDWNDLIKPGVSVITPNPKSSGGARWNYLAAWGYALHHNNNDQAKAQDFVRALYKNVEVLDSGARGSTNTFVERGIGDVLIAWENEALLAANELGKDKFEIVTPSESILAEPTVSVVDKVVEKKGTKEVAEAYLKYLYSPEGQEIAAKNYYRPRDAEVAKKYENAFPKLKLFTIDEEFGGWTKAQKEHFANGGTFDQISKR
# This is one part of the list. Small differences around the control level are noise.
# Compound: CC1(C)S[C@@H]2[C@H](NC(=O)[C@H](N)c3ccccc3)C(=O)N2[C@H]1C(=O)O [ampicillin]
# Assay: log2 fold change of tryptic peptide abundance, ligand vs vehicle (limited proteolysis) (log2 ratio); higher = more trypsin-susceptible (destabilized)
# Details: ligand concentration: 10 uM; sample: E. coli crude lysate
row,Target,log2 fold change
1,"UniProt P0AD42 (peptide sequence: GYGGWVLTMR, peptide start residue: 149)",0.291
2,"UniProt P0AF96 (peptide sequence: AHVTAETPK, peptide start residue: 26)",0.0463
3,"UniProt P0AEK2 (peptide sequence: MKDEEWNDIIETNLSSVFR, peptide start residue: 98)",-0.218
4,"UniProt P0ADJ3 (peptide sequence: EQLAAALKR, peptide start residue: 43)",-0.151
5,"UniProt P0ADM4 (peptide sequence: VEKSEANAQATNAVIPPAR, peptide start residue: 88)",-0.123
6,"UniProt P0AFP2 (peptide sequence: RLPEGSTLPWHR, peptide start residue: 74)",0.18
7,"UniProt P0AEC3 (peptide sequence: KRYQDALER, peptide start residue: 270)",0.94
8,"UniProt P0AFW8 (peptide sequence: ASDLVSRK, peptide start residue: 40)",-0.11
9,"UniProt P0AE58 (peptide sequence: VVDIDEQIYAR, peptide start residue: 79)",-0.215
10,"UniProt P0AFF4 (peptide sequence: VPTGTQTVSH, peptide start residue: 409)",0.00809
11,"UniProt P0AG78 (peptide sequence: NVEVLDSGAR, peptide start residue: 184)",-0.378

# Quoted from above for reference:
row,Target,log2 fold change
6,"UniProt P0AFP2 (peptide sequence: RLPEGSTLPWHR, peptide start residue: 74)",0.18
7,"UniProt P0AEC3 (peptide sequence: KRYQDALER, peptide start residue: 270)",0.94
